Measured values taken from paper PMC6182170.
No constants are given. Whether binding was seen depends on the method and setting. Some entries that bind do so weakly or less than the wild type. Tags and fused reporters may be left off the sequences shown.

Protein sequences, listed by entry. Tags and fused reporters are not part of them.
UniProt Q22618: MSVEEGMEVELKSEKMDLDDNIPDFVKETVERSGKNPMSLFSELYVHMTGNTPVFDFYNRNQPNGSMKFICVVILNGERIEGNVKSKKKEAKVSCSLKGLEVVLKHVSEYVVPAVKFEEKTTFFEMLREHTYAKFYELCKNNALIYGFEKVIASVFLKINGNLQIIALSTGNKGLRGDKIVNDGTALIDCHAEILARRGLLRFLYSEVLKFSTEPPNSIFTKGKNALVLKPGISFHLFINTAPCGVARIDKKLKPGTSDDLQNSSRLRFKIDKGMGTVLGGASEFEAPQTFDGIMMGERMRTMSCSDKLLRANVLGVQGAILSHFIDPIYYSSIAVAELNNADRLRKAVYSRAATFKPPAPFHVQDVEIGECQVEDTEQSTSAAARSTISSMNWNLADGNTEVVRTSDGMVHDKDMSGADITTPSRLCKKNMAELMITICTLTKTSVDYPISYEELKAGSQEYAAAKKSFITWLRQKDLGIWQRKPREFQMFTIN

B1: Recombinant WT ADR-1 (His-ADR-1) (protein, UniProt Q9U3D6 1-964)
chain: MDQNPNYNFGYGQAYGSGTDHTSDSTNNYNWASQWSQPESAASLATHTFPQYVSQQQQQQQQQAQQQAQNTYAAMNPISTFMQQQQRAQTFPQKKYGQQGGAPKPSAIRNNNFGAFGGGHALSQEWVQPMSQNQMGGPQGNRFFNNQKGGPFNQNKPNWRQNKPKGPAAPKKFDSTGKSPAMLLHELFKDVSEEYTEVEGVPKKYCCTLKVNGRTFQMESVNKKAAKQKCSELVVRDLRPDVHVTPFEEGVAAKAAAPVKKEIDAASGNGQNNKRNLLQADAISNQPTPKKVSAVKKAKLQLTPVESALSLLDLMQKIIAESAEKYSPVFEASEVPKDPEIPEVEVKKEEVDTNGENVANEKKSGWRKNETMHNVTLKFVEQNKQYTKMGPSRGVLKDMVIREALRDLFNVSHADITTVARRHASNRLGHDTTILQCLNTICSILNCTLTIECEPAEDRPLGIGRAYFMAKCTIIDHNENDLKFEVKSSSLASKAMAKDWVAQETLKNYFAIDPSSCVKTDAVSSQGPCALLHAMLNKQTKQKCKIAYEFKDNVPPVAGQATTTFYCECVIDETDRYIGVGRSKKLAKSEAAMQALKKLFKIDYDPAGNYPLALTSRAMTESKVSPLCRHIAEFCKREYHQMTEYYQIPPSNLFAAFLLVNAQEEKRVLAMGSSIQYIVEPDTLSGANGTSLLHLDAIILARRAMLKAFIHELSTVDSECSIFEKKEEGKAALKPNLRLVLYSNYSPPCIHAVDDAATKKLSYVTPTNLTCVPDDVLTYEQIKETKSLRVHCTADKLFKWNTLGIQGALLSNVLHPIFIDNIFFGSEAPVSDESLSYALQGRLGPNENEREIIVESMPVQMRMHMGISHLWHRGVDSVETLDYNTGRTSKGSPSRVCKAEIFEAYRKLNGVDQAVVNYAKAKEMASEYQYEKKVFYEKLEAAGLGKWQTKPAELVDSFTLAAFD
B2: Recombinant ADR-1 dsRBD1 mutant (KKxxK into EAxxA in dsRBD1) (protein, UniProt Q9U3D6 1-964)
chain: MDQNPNYNFGYGQAYGSGTDHTSDSTNNYNWASQWSQPESAASLATHTFPQYVSQQQQQQQQQAQQQAQNTYAAMNPISTFMQQQQRAQTFPQKKYGQQGGAPKPSAIRNNNFGAFGGGHALSQEWVQPMSQNQMGGPQGNRFFNNQKGGPFNQNKPNWRQNKPKGPAAPKKFDSTGKSPAMLLHELFKDVSEEYTEVEGVPKKYCCTLKVNGRTFQMESVNEAAAAQKCSELVVRDLRPDVHVTPFEEGVAAKAAAPVKKEIDAASGNGQNNKRNLLQADAISNQPTPKKVSAVKKAKLQLTPVESALSLLDLMQKIIAESAEKYSPVFEASEVPKDPEIPEVEVKKEEVDTNGENVANEKKSGWRKNETMHNVTLKFVEQNKQYTKMGPSRGVLKDMVIREALRDLFNVSHADITTVARRHASNRLGHDTTILQCLNTICSILNCTLTIECEPAEDRPLGIGRAYFMAKCTIIDHNENDLKFEVKSSSLASKAMAKDWVAQETLKNYFAIDPSSCVKTDAVSSQGPCALLHAMLNKQTKQKCKIAYEFKDNVPPVAGQATTTFYCECVIDETDRYIGVGRSKKLAKSEAAMQALKKLFKIDYDPAGNYPLALTSRAMTESKVSPLCRHIAEFCKREYHQMTEYYQIPPSNLFAAFLLVNAQEEKRVLAMGSSIQYIVEPDTLSGANGTSLLHLDAIILARRAMLKAFIHELSTVDSECSIFEKKEEGKAALKPNLRLVLYSNYSPPCIHAVDDAATKKLSYVTPTNLTCVPDDVLTYEQIKETKSLRVHCTADKLFKWNTLGIQGALLSNVLHPIFIDNIFFGSEAPVSDESLSYALQGRLGPNENEREIIVESMPVQMRMHMGISHLWHRGVDSVETLDYNTGRTSKGSPSRVCKAEIFEAYRKLNGVDQAVVNYAKAKEMASEYQYEKKVFYEKLEAAGLGKWQTKPAELVDSFTLAAFD

Target: Recombinant WT ADR-2 (C. elegans) (UniProt Q22618)
Assay: pull-down; in vitro pulldown: recombinant ADR-2 (5 nM) held on anti-rabbit IgG Dynabeads by ADR-2 antibody PA6496, 4°C, BSA block; ADR-1 proteins (3 nM) added in EMSA buffer (50 mM KCl, 10 mM Tris-HCl pH 8.0, 10% glycerol, 1 mM MgCl2) for 1 h, with or without 46 bp dsRNA (0-10 nM); also after micrococcal nuclease treatment of the WT proteins; immunoblot with ADR-1 and ADR-2 antibodies; both purified

| Binder | binding |
| --- | --- |
| B1 | binds |
| B2 | binds |
